This series can be described thus: Deodorization test in sealed container with H2S-impregnated sponge; changes in H2S concentration with time.
The mark [1] stands for this setting: ozone gas supplied for five minutes, graph (B).

For the compound `O=[O+][O-]` [ozone gas, ozone], under setting [1], the “time after which the concentration of H2S returned to substantially the original state” value was 40 min and the “time for which the concentration of H2S (odor) was lowered” value is recorded as “about 20 minutes”. Further, under “ozone gas supplied into sealed container for five minutes, FIG. 5 graph (B)”, the “concentration of H2S (odor)” value is recorded as “lowered desirably”.

Values taken from patent US6485685B1, “Purifying agent, apparatus and method for forming purifying agent, and purifying method using the agent” (Toyota Jidosha Kabushiki Kaisha, priority 1997, dated 2002).
